These results are taken from the supplement of paper PMC12823440, “Inhibitors supercharge kinase turnover through native proteolytic circuits” (Nature, 2025).

Amino acid sequences for entries named in this document (tags omitted). A change or cut given only in a name is not applied to a line headed by its entry.
UniProt Q9BRS2: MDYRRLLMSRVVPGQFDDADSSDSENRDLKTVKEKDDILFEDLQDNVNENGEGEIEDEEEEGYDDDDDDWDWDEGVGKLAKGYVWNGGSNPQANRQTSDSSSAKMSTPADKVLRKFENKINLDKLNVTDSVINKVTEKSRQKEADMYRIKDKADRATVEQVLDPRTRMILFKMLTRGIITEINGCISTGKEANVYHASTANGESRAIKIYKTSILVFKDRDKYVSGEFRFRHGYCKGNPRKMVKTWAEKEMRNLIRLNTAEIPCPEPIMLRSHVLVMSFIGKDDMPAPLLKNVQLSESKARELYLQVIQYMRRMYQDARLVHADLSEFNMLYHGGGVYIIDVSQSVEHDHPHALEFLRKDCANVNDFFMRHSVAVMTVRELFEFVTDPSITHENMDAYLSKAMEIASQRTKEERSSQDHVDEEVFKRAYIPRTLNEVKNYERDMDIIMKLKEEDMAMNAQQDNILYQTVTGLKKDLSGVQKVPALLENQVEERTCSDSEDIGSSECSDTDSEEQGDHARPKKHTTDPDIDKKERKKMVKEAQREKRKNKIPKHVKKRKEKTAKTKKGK
UniProt Q01974, whole entry: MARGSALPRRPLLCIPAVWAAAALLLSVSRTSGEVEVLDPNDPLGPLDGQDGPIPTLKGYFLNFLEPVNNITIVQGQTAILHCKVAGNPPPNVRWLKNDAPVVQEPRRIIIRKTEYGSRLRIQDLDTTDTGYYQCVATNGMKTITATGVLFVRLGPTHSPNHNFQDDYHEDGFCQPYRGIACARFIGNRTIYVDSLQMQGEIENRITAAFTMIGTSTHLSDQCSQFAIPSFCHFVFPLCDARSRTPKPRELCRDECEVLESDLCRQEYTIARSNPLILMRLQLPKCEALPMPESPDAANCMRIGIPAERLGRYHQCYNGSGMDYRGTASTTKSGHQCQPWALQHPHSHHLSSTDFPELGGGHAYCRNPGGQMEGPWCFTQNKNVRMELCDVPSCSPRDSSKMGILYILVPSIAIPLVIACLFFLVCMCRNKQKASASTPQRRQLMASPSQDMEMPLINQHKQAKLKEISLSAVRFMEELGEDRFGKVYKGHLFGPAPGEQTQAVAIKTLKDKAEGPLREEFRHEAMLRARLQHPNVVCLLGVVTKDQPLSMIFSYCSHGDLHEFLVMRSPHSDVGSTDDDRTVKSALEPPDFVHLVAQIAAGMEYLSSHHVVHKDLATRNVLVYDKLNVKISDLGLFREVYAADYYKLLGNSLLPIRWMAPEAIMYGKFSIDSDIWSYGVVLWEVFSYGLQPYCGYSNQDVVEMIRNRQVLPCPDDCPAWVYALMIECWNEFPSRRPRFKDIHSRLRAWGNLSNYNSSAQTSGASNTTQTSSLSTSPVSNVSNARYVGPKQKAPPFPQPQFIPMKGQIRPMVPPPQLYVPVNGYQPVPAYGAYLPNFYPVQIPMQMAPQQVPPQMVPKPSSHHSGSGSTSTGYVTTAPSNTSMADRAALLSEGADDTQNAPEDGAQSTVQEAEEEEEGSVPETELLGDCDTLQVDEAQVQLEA
UniProt Q9NYA1, whole entry: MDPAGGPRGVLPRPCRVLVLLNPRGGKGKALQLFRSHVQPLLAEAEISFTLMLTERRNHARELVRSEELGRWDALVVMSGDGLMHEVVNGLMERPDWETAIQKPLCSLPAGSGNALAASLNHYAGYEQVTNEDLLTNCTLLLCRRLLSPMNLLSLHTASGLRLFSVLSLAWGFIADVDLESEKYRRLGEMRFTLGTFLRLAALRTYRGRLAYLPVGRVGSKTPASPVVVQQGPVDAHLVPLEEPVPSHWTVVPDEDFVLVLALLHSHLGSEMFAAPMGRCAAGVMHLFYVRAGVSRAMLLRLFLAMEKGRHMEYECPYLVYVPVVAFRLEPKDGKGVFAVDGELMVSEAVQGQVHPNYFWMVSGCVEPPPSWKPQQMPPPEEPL
UniProt Q9Y6E0: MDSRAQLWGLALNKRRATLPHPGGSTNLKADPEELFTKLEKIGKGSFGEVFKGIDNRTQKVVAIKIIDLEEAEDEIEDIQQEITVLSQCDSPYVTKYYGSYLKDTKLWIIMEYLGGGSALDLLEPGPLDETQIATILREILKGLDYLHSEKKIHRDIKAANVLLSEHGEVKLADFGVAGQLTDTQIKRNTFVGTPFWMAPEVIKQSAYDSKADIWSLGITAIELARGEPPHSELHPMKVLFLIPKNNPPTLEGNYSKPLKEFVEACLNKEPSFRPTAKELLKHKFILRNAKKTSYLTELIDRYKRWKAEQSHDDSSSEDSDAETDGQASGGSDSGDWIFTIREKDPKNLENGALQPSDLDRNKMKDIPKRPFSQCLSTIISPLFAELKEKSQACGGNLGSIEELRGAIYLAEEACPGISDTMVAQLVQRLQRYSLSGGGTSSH
UniProt Q15208: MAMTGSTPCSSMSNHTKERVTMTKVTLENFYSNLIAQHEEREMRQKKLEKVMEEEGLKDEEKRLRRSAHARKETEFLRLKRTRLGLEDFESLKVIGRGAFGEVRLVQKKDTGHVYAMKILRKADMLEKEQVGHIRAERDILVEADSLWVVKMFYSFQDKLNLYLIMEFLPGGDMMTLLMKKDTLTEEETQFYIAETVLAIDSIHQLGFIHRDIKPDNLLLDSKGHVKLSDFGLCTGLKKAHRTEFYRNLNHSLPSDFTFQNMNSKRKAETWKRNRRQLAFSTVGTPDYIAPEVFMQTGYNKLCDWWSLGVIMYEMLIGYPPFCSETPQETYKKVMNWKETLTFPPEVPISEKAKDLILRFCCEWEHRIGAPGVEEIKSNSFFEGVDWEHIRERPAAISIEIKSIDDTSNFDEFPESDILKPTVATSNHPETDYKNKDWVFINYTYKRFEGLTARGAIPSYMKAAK
UniProt P42680: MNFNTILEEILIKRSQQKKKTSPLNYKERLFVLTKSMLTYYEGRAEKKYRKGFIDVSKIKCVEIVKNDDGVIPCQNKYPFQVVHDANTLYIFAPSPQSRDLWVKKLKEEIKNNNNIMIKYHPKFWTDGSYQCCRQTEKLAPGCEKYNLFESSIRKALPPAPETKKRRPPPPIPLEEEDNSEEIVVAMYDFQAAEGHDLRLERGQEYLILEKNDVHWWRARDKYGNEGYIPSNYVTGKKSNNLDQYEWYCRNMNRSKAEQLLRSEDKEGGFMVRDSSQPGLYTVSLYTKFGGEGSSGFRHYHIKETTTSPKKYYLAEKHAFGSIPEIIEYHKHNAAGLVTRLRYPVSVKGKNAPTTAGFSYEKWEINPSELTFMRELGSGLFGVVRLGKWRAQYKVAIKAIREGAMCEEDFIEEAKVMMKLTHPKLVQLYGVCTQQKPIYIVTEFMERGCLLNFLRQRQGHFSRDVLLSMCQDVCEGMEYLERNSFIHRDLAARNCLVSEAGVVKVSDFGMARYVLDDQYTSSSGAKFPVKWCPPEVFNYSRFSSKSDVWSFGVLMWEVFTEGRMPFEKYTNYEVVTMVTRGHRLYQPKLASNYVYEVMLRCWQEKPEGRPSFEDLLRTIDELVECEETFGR
UniProt P29597: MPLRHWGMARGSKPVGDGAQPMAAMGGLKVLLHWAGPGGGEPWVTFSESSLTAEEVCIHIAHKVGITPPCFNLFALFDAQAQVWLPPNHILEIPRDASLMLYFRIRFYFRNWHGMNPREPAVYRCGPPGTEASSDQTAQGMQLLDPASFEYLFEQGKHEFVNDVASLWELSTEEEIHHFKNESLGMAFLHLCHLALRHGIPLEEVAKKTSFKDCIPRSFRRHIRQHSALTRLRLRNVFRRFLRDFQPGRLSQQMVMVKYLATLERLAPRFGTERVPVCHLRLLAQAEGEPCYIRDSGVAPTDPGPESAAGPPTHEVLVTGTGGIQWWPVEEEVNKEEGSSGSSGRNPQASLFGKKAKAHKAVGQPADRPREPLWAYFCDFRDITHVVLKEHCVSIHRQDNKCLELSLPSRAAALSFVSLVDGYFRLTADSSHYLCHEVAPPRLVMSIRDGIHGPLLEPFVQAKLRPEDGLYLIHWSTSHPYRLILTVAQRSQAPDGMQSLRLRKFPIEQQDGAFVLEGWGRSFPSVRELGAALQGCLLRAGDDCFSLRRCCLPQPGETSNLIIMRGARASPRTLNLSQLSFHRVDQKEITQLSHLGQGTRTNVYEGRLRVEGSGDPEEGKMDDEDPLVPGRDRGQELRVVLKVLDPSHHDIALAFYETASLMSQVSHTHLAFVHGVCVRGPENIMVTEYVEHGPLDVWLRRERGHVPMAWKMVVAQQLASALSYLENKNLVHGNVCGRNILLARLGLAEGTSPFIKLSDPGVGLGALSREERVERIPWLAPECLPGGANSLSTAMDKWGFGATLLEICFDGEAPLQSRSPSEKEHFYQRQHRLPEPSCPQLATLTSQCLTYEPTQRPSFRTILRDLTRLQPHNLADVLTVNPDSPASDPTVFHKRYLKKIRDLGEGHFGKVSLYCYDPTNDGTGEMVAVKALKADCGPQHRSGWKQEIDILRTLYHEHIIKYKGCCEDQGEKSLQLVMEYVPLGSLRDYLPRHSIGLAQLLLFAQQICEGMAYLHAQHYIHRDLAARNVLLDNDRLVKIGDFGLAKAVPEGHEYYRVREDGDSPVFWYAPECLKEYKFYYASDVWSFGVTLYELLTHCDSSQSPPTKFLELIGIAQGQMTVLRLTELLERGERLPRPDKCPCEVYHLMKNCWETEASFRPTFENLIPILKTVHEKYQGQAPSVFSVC
UniProt Q6PHR2: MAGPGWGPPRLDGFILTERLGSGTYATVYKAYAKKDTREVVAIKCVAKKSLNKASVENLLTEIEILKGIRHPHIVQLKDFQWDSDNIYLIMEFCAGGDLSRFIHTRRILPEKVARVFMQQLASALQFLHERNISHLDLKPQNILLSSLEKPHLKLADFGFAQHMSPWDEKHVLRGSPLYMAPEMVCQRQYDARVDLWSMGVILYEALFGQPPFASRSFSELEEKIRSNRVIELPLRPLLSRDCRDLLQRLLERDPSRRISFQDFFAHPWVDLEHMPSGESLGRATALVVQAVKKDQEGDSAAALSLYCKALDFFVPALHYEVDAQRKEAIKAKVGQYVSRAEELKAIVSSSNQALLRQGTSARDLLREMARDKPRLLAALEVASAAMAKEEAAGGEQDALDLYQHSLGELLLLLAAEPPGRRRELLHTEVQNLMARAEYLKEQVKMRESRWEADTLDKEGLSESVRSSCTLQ
UniProt P07947, whole entry, looked up: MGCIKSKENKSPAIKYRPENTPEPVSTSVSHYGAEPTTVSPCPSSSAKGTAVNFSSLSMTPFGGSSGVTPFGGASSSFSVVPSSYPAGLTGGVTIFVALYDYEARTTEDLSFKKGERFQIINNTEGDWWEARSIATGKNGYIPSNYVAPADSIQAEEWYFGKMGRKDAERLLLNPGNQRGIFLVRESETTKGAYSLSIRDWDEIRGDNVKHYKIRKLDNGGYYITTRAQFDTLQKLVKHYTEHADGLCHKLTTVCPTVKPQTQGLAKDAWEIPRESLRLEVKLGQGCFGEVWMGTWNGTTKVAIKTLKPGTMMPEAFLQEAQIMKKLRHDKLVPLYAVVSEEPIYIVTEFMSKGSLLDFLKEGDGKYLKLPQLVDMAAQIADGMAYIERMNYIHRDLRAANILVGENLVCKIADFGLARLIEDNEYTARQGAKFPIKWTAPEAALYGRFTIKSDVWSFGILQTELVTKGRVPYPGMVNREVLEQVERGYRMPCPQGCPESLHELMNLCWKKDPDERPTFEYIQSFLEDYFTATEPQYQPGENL
UniProt P43403: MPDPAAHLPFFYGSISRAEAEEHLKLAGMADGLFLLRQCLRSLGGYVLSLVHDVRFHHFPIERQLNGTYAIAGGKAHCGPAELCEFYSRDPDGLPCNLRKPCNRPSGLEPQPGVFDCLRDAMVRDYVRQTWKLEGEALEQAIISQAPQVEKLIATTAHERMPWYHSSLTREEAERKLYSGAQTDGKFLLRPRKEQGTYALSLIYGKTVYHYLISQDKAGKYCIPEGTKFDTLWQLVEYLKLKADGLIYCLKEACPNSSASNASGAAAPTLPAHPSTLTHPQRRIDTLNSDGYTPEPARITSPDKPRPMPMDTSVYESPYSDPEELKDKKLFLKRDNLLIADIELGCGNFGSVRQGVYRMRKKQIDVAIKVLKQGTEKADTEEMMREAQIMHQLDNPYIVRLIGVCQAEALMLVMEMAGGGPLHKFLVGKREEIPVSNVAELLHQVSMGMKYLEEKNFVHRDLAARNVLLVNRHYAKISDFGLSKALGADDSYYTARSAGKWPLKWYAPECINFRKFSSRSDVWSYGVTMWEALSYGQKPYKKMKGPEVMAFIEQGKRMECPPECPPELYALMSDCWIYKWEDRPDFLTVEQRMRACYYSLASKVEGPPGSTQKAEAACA
UniProt P11802: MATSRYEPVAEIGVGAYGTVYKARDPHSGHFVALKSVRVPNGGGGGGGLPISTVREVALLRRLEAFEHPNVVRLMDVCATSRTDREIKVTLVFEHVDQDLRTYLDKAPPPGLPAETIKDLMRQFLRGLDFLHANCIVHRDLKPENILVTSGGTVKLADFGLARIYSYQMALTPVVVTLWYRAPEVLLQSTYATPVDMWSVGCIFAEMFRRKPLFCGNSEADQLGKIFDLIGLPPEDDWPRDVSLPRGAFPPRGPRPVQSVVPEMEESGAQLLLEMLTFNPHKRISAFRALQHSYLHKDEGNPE

This is one part of the list. The calls rarely recur for the same compound in another form.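 Kinases were expressed as nanoluciferase fusions in K562 cells and luminescence was read every 4 h between 2 and 18 h as percent of control, DMSO set to 100% and a positive control to 0%. A time point counts as decreased when the signal drops significantly (2 sigma). The hit call is the authors' own, does not follow from the count of time points alone, and its rule is not shown.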

Common to all, as to details: K562, 2-18 h
For one experiment, the target named is RIOK1 (UniProt Q9BRS2). The experiment can be described thus: kinase-Nluc reporter destabilization hit call (1 = scored as downregulated) (binary); higher = compound decreases kinase abundance.
Another experiment deals with RIPK1 (UniProt Q13546). The experiment is described as above.
The next experiment concerns the target RIPK2 (UniProt O43353). The description is as above.
A further experiment concerns the target ROR2 (UniProt Q01974). The experiment is described as above.
The target in another experiment is RPS6KA1 (UniProt Q15418). The experiment is described as above.
For the next experiment, the target named is SPHK1 (UniProt Q9NYA1). The experiment is described as above.
For a further experiment, the target named is SRC (UniProt P12931). The description is as above.
The next experiment has as its target STK24 (UniProt Q9Y6E0). Described as above.
For another experiment, the target named is STK38 (UniProt Q15208). The experiment is described as above.
In a further experiment the target is TEC (UniProt P42680). The experiment is described as above.
For a further experiment, the target named is TYK2 (UniProt P29597). The experiment is described as above.
A further experiment has as its target ULK3 (UniProt Q6PHR2). Described as above.
For another experiment, the target named is YES1 (UniProt P07947). Described as above.
A further experiment has as its target ZAK (UniProt Q9NYL2). Described as above.
The target of another experiment is ZAP70 (UniProt P43403). The experiment is described as above.
A further experiment concerns the target CDK4 (UniProt P11802). Briefly: number of time points (of 4; 2 h point missing) at which kinase-Nluc abundance scored as decreased, DMSO-normalised (count); higher = more persistent destabilization.
Another experiment addresses CDK7 (UniProt P50613). The description is as above.
The target of a further experiment is RET (UniProt P07949). The experiment can be described thus: kinase-Nluc reporter destabilization hit call (1 = scored as downregulated) (binary); higher = compound decreases kinase abundance.
For experiment [1], the target named is RET_M918T (clone: RET_mut) (UniProt P07949). Described as above.
The target in a further experiment is SYK (UniProt P43405). Described as above.

As to `CC(=O)c1c(C)c2cnc(Nc3ccc(N4CCN(C(=O)CCCCCC(=O)N[C@H](C(=O)N5C[C@H](O)C[C@H]5C(=O)NCc5ccc(-c6scnc6C)cc5)C(C)(C)C)CC4)cn3)nc2n(C2CCCC2)c1=O`, the “kinase-Nluc reporter destabilization hit call” value in the experiment with RIOK1 (2.5 µM), with RIPK1 (2.5 µM), in the experiment with RIPK2 (2.5 µM), with ROR2 (2.5 µM), with RPS6KA1 (2.5 µM) and with SPHK1 (2.5 µM) was inactive: 0 in each case. The “kinase-Nluc reporter destabilization hit call” value in the experiment with SRC (2.5 µM), with STK24 (2.5 µM), in the experiment with STK38 (2.5 µM), with TEC (2.5 µM), in the experiment with TYK2 (2.5 µM) and in the experiment with ULK3 (2.5 µM) was inactive: 0 each time. The “kinase-Nluc reporter destabilization hit call” value with YES1 (2.5 µM), with ZAK (2.5 µM) and with ZAP70 (2.5 µM) was inactive: 0 each time. The “number of time points” value with CDK4 (2.5 µM) came to 0; with CDK7 (2.5 µM), 1.
As to `Cc1[nH]c(/C=C2\C(=O)Nc3ccc(F)cc32)c(C)c1C(=O)NC[C@H](O)CN1CCOCC1`, the “kinase-Nluc reporter destabilization hit call” value (with RET (2.5 µM); in [1] (2.5 µM); in the experiment with RIOK1 (2.5 µM); with RIPK1 (2.5 µM); with RIPK2 (2.5 µM); with ROR2 (2.5 µM)) was inactive: 0 each time. Further, the “kinase-Nluc reporter destabilization hit call” value in the experiment with SPHK1 (2.5 µM), in the experiment with SRC (2.5 µM), with STK24 (2.5 µM), with STK38 (2.5 µM), with SYK (2.5 µM) and with TEC (2.5 µM) was inactive: 0 in each case. The “kinase-Nluc reporter destabilization hit call” value with TYK2 (2.5 µM), in the experiment with ULK3 (2.5 µM), with YES1 (2.5 µM), with ZAK (2.5 µM) and with ZAP70 (2.5 µM) was inactive: 0 each time. For the same compound, the “number of time points” value with CDK4 (2.5 µM) and with CDK7 (2.5 µM) was 0 each time.
In the case of `CC1(C)CNc2cc(NC(=O)c3cccnc3NCc3ccncc3)ccc21` [Motesanib (Diphosphate)], the “kinase-Nluc reporter destabilization hit call” value with RIOK1 (2.5 µM), in the experiment with RIPK1 (2.5 µM), with RIPK2 (2.5 µM), in the experiment with ROR2 (2.5 µM), in the experiment with RPS6KA1 (2.5 µM) and with SPHK1 (2.5 µM) was inactive: 0 throughout. The “kinase-Nluc reporter destabilization hit call” value with SRC (2.5 µM), in the experiment with STK24 (2.5 µM), with STK38 (2.5 µM), with SYK (2.5 µM), in the experiment with TEC (2.5 µM) and with TYK2 (2.5 µM) was inactive: 0 throughout. The “kinase-Nluc reporter destabilization hit call” value in the experiment with ULK3 (2.5 µM), with YES1 (2.5 µM), with ZAK (2.5 µM) and with ZAP70 (2.5 µM) was inactive: 0 throughout. For the same compound, the “number of time points” value with CDK4 (2.5 µM) and in the experiment with CDK7 (2.5 µM) was 0 throughout.
For `CCOc1cc2ncc(C#N)c(Nc3ccc(F)c(Cl)c3)c2cc1NC(=O)/C=C/CN(C)C` [Pelitinib], the “kinase-Nluc reporter destabilization hit call” value (with RET (2.5 µM); in experiment [1] (2.5 µM); in the experiment with RIOK1 (2.5 µM); in the experiment with RIPK1 (2.5 µM); in the experiment with RIPK2 (2.5 µM); with ROR2 (2.5 µM)) was inactive: 0 in each case. For the same compound, the “kinase-Nluc reporter destabilization hit call” value with RPS6KA1 (2.5 µM), with SPHK1 (2.5 µM), with SRC (2.5 µM), in the experiment with STK24 (2.5 µM), with STK38 (2.5 µM) and with SYK (2.5 µM) was inactive: 0 throughout. In addition, the “kinase-Nluc reporter destabilization hit call” value is inactive: 0 with TEC (2.5 µM); active: 1 in the experiment with TYK2 (2.5 µM); inactive: 0 with ULK3 (2.5 µM); inactive: 0 with YES1 (2.5 µM); inactive: 0 with ZAK (2.5 µM); inactive: 0 in the experiment with ZAP70 (2.5 µM). The “number of time points” value with CDK4 (2.5 µM) and in the experiment with CDK7 (2.5 µM) was 0 in each case.
Take `CC#CC(=O)N1CCC[C@H]1c1nc(-c2ccc(C(=O)Nc3ccccn3)cc2)c2c(N)nccn12` [Acalabrutinib]: the “kinase-Nluc reporter destabilization hit call” value (in the experiment with RET (10 µM); in experiment [1] (10 µM); in the experiment with RIOK1 (10 µM); with RIPK1 (10 µM); in the experiment with RIPK2 (10 µM); with ROR2 (10 µM)) was inactive: 0 each time. Besides, the “kinase-Nluc reporter destabilization hit call” value in the experiment with RPS6KA1 (10 µM), in the experiment with SPHK1 (10 µM), with SRC (10 µM), with STK24 (10 µM), with STK38 (10 µM) and with SYK (10 µM) was inactive: 0 each time. The “kinase-Nluc reporter destabilization hit call” value with TEC (10 µM), with TYK2 (10 µM), with ULK3 (10 µM), with YES1 (10 µM), with ZAK (10 µM) and in the experiment with ZAP70 (10 µM) was inactive: 0 each time. Moreover, the “number of time points” value with CDK4 (10 µM) and with CDK7 (10 µM) was 0 throughout.
